For some assays here: The exact form of at least one protein or probe is not confirmed. For some assays here: Protein sequences can lack the tags named with them.
Tests used:
[1] = molecular target: T1, C5a (complement anaphylatoxin C5a) (Homo sapiens) (UniProt P01031); test: activity in cells; details: L-RNA/L-DNA (mirror-image); L-deoxy at dU7, dG14, dA15, dU28, dU30, dC38, remaining positions L-RNA; C5a 0.1 ug/ml, aptamer 1 ug/ml, 24 h, human corneal keratocytes; 2 ug/ml 33%, 3 ug/ml 29%, 5 ug/ml 34%, all p<0.001; functional inhibition, direct binding not measured; mirror-image nucleic acid; scale: % aSMA-positive cells
T1 sequence: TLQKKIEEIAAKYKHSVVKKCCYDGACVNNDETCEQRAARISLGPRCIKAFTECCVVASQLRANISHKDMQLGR

The chains behind the UniProt entries cited, without tags or fusion partners. Residues count along the entry.
UniProt P01024, 672-748: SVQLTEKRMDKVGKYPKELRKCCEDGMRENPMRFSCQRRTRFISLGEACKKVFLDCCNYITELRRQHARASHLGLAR

[2] = molecular target: C3a (complement anaphylatoxin C3a) (Homo sapiens) (UniProt P01024); test: activity in cells; details: L-RNA/L-DNA (mirror-image); L-deoxy at dU7, dG14, dA15, dU28, dU30, dC38, remaining positions L-RNA; C3a 0.1 ug/ml, aptamer 3 ug/ml (p=0.017), 24 h, human corneal keratocytes; 1 ug/ml 65% and 2 ug/ml 55% not significant, 5 ug/ml 51% (p=0.017); aptamer raised to C5a; mirror-image nucleic acid; scale: % aSMA-positive cells

GCGAUGUGGUGGUGAAGGGUUGUUGGGUGUCGACGCACGC [C5a aptamer (L-RNA/L-DNA)]
functional effect of the aptamer [1]: 31 | functional effect of the aptamer [2]: 47

— patent US20230183325
